From patent US20240174992A1, “SPLIT MODIFIED DEHALOGENASE VARIANTS” (Promega Corporation, priority 2022, published 2024)
For part of these data: Not every detail of the peptide structures is certain; ends, links or a residue may be inferred. Some entries share one result that the patent states for a list of compounds. Where no end group is shown, it is not given here.

Legend:
HeLa cells = experiment: Split HaloTag FRB/FKBP plate-based fluorescent assay in live HeLa cells; type: cell-based; conditions: labeling after pre-incubation with Rapamycin
Description: FIG. 27A-B. Activity of split HaloTag combinations in live mammalian cells. HeLa cells transiently transfected with plasmids expressing the large HaloTag fragments fused to FRB and small HaloTag fragments fused to FKBP were incubated for 2 hours with 500 nM Rapamycin, followed by labeling with 50 nM JF646 HaloTag ligand prior to detection of fluorescence at indicated timepoints. FIG. 27A Fluorescence intensity of JF646 HaloTag ligand in live cell assays over time comparing cells treated or untreated with Rapamycin. FIG. 27B Fold response of each assay condition was calculated as the ratio of fluorescence signal for +Rapamycin/−Rapamycin treated cells.
FIG. 90. […] HeLa cells transiently transfected with plasmids expressing the large HaloTag fragment fused to FRB and small HaloTag fragments fused to FKBP were incubated for 2 hours with 500 nM Rapamycin, followed by labeling with 50 nM JF646 HaloTag ligand prior to detection of fluorescence activity at indicated time points. Fluorescence intensity of JF646 HaloTag ligand in live cell assays over time comparing cells treated or untreated with Rapamycin.
FIG. 91. […] The fold response of each assay condition was calculated as the ratio of fluorescence signal for +Rapamycin/−Rapamycin treated cells.
FIG. 93. […] Fluorescence intensity of JF646 HaloTag ligand in live cell assays over time comparing cells treated or untreated with Rapamycin. […]

[1] = with 6×His-HaloTag[22-297](M2F)

## HT(4-19): small HaloTag fragment, residues 4-19, FKBP fusion
HeLa cells
  time at which fold responses were detectable: ≤ 15 min

## HaloTag[3-19]: small HaloTag fragment, residues 3-19 of the HALOTAG sequence; used as fusion or synthetic peptide (EIGTGFPFDPHYVEVLG)
HeLa cells
  time at which fold responses were detectable: ≤ 15 min

## RREIGTGFPFDPHYVEVLG
[1]
  function of the split HaloTag system with modified peptide: retaining function of the split HaloTag system
